{"sequences": {"note": "By UniProt entry, the sequences of proteins in these tests, tags left out.", "UniProt P06748": "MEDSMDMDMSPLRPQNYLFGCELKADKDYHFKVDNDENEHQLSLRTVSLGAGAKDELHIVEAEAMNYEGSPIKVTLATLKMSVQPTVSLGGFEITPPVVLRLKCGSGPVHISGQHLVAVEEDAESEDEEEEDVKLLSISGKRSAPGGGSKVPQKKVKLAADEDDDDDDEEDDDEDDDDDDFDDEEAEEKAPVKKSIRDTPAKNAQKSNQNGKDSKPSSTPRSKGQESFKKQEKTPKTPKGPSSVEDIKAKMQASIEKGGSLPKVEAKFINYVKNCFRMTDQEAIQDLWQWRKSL"}, "source": "paper PMC10476466", "molecular_target": "T1, phospholipase D1 (PLD1) (UniProt Q13393)", "T1 sequence": "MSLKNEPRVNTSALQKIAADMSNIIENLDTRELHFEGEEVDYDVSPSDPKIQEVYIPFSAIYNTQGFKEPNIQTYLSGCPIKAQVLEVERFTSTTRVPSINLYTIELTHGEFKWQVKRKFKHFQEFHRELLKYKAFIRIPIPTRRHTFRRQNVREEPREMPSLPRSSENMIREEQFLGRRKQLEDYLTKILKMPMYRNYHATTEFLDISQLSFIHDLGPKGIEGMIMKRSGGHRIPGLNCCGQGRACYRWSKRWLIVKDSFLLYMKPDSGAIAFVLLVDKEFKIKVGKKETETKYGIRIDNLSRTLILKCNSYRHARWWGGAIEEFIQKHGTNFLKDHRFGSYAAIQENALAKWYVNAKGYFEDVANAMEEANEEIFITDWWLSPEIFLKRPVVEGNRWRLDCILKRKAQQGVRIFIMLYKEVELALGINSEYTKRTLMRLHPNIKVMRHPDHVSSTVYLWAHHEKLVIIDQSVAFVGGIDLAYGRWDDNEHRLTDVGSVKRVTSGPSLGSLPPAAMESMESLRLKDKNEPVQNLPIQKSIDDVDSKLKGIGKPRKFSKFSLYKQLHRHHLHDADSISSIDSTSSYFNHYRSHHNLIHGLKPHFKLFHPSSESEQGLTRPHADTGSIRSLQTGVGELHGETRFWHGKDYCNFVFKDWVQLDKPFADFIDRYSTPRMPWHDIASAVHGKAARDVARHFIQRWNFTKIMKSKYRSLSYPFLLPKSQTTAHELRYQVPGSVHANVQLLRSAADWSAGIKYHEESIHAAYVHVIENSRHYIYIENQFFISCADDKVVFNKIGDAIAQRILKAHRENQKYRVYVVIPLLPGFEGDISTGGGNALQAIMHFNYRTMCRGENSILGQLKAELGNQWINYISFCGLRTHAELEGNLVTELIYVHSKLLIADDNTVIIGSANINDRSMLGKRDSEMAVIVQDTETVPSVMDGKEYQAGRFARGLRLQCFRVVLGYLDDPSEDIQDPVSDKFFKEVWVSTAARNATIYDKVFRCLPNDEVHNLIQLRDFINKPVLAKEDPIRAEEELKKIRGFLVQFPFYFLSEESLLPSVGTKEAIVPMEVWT", "assay": "affinity purification with mass spectrometry; intranuclear immunoprecipitation-mass spectrometry (IPMS) of PLD1 in PLD1 overexpression cell lines", "note": "These are yes or no findings as the source states them, for the method shown. Binding seen in cells or lysates may run through a third protein. These calls come from enrichment with a bait or labelling near it, and not all partners need be listed."}
{"substance": "nucleophosmin 1 (NPM1) (from UniProt P06748 1-294)", "values": [{"measurement": "binding", "value": "binds"}]}
